Measured values taken from PubChem BioAssay AID1347426 (Functional Genomics Laboratory (NCATS/FGL), 2020).
In all, about 31,000 sequences went through this assay and about 1,400 (4.5%) were called active.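 Rule for the calls: active = median seed-adjusted z-score above 1 or below -1; inactive = the rest.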 This is one part of the list.

Assay: Novel Modifiers of Survival Motor Neuron (SMN) Protein: Gene Identification via Genome-wide siRNA Screen;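 note: luminescence tracks full-length SMN protein made from the SMN2 reporter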
Settings: HEK293T SMN2-luciferase reporter, siRNA knockdown, 72 h; actives lie on both sides
In short: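 siRNA screen, 10418 genes ×3 siRNAs; 1 pmol/well, lipid reverse transfection into HEK293T SMN2-luc reporter line. 72 h, 37 °C, 5% CO2; ONE-Glo readout. Data: neg-ctrl normalized, log10, MAD; hit = MAD >1.0 or < -1.0.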

Sequence | median seed-adjusted z-score
CCAGGAAAAAUCAAACGUATT against RCL1 | inactive: 0.0807
CAUGCAACCCUGAGAGCAATT against UNQ2541 | inactive: -0.954
GGAUUUGGGUAAAGUCACATT against ZNF483 | inactive: 0
CCUUAAUCCUUUGUUAACATT against KPNA6 | active: -1.54
GGUCCAGAUCUACAACCCATT against ST3GAL2 | inactive: -0.139
GAGACAGAGUGUCAGAGUATT against TRPT1 | inactive: -0.671
CCCUACCUUUGGUGGAAAATT against ELOVL1 | inactive: 0.564
GCAGUUCGAGAAGAACUUUTT against LMBR1 | inactive: 0.236
GCUUGAGUAUAGAUAAAGATT against PAM | inactive: 0
GCCUGUUAUCGACUACAUUTT against 7-Sep | inactive: -0.00715
GCCUGAAAACAAACCAGAATT against BAG3 | inactive: -0.443
GCAAGAAAAGCGCAGAGAATT against MSX1 | inactive: 0.757
GGAAAACUACUGUCGAAAUTT against HGF | inactive: -0.569
CCAGUAAUCUGAUAAAUAATT against COX7A2 | inactive: -0.0808
GAACUUUCCUAAUGGUGUUTT against CPM | inactive: 0.549
UCAUCUCUAUUGUUGCUGUTT against PSEN1 | inactive: -0.679
CGACCAGGAUGGAUACAUUTT against RASGRP1 | inactive: -0.392
AGCUGAUGUUCGAGCAGUATT against ACTL6B | inactive: 0.0703
GGAGGAUGACUUGAACGCATT against CFD | inactive: -0.0604
GGAGCAUAUGAUCAACAAATT against PHTF2 | inactive: 0.389
CCACGAGAUUUUAAGCGCATT against HEPHL1 | inactive: 0.0681
UCACGAAGCUCAGAGAUUATT against SLC25A29 | inactive: 0.642

Sequence | median seed-adjusted z-score
GCGUGACAAUGGUUGGAGATT against OSBPL11 | inactive: 0.535
GCCUUAAGGUCAAGGUCUATT against UNC5B | inactive: -0.0207
CAGUGGAAUUUAUGUGCAATT against HTRA3 | inactive: 0.291
CGGCAACAUCGGAAUCUGUTT against KRT37 | inactive: 0.0484
GCAUAGGUGUCAUCGGCAATT against ATP11A | inactive: 0.158
GCAGAAAUGUUUCGUAGAATT against CDK6 | inactive: 0
CCACAUUGUCAGUGAAUUATT against SULT6B1 | inactive: 0
GCUUUAUAAGUGUAGCGAATT against ZNF749 | inactive: 0.911
CAGUCGAGAUUAUCGUAGATT against SFRS10 | inactive: -0.071
ACAGAAUACAGGCUGGUGATT against CSDA | inactive: 0
GUCAAGAUAUCAUAGCUAUTT against NDST4 | inactive: 0.426
CCAUUGUCCCAGACUCGAATT against MARK3 | inactive: 0.271
CCUGGAAGGUUAUCGGAAATT against ATP10D | inactive: -0.35
CGGGAGCAUUCGCUCAUUATT against LMAN2 | inactive: -0.0921
GCAGGACCGAUAUGCCUUATT against NAGA | inactive: -0.247
GGAUAGAUUUCUUCGAGAATT against LARP7 | inactive: -0.483
GAGUGUAACAUCGUAGUAATT against DHX9 | inactive: -0.687
CAGUGUUAAUUGUGCAAGATT against USP9X | inactive: -0.443
GGAAGGUUCAUGCUAGAGATT against SLC8A1 | inactive: 0.221
CCAUCUCCUACAUCGCCGATT against APBA2 | active: 1.66
CACUGAUUGAUGUCAAUGATT against CDH3 | inactive: -0.138
CCAACGAGCUGAGAAAUAATT against STX6 | inactive: 0.748

Sequence | median seed-adjusted z-score
CGACGAUUCGUGCUUAAUATT against MYO5C | inactive: 0
GAUAUGUUGCUGCUAUUAATT against DLD | inactive: 0.377
CGCAGACGAUAUUGACAAATT against APOL6 | inactive: -0.167
GGAUAUUUCGCAGAGGAAATT against ZNF763 | inactive: 0.236
GAGUCGGAGUACUCAGUAATT against BMP5 | inactive: 0.0733
GCAUCCCAGUGAACUGUGATT against PNMA1 | inactive: 0.2
GCCUUAAUCUGGAUCAUAATT against PLOD3 | inactive: -0.258
GACUGUUACAGAUCGGAAATT against NKIRAS1 | inactive: 0.113
CGUGAUAACGGCUAAGGAATT against MYF6 | inactive: -0.0315
GGAGCAACGAGAGAAACAATT against RNMTL1 | inactive: 0.174
AGAGCAUUGAGAUCGAGAATT against RAB11FIP3 | inactive: 0.0361
GGAAGACAGUAAAACUUUUTT against FHOD1 | inactive: -0.114
GGCGAGAAGAGCAACGUAATT against DDX46 | active: -1.24
CGAGUUUGAUGAAAGAGGATT against NT5E | inactive: 0.199
CACUGCAGCUUGAAUGAGATT against EPO | inactive: 0.148
GCCCAUUCAGUGGAACGAATT against GLI3 | inactive: 0.143
GCAUCUCAUCGGAAGAGGATT against MAP3K12 | inactive: -0.6
GUGAGAAGCAGCUACCGUATT against FADS6 | inactive: -0.637
CUGUAAGAUUAAAUCCCAATT against TMTC4 | active: -1.16
CCAUUGUCAAAAGAUUUCUTT against CDC14C | inactive: 0.437
GCCCUGCUCUUUGUACUCUTT against BCAT1 | inactive: -0.604
CCACCUAUGCUAUCAACGUTT against VKORC1 | inactive: -0.754

A few values from the results shown:
GGAUAUUUCGCAGAGGAAATT against ZNF763 | median seed-adjusted z-score: inactive: 0.236
CGCAGACGAUAUUGACAAATT against APOL6 | median seed-adjusted z-score: inactive: -0.167

Later entries:

Sequence | median seed-adjusted z-score
GUACCACCGGGAGCUCAAATT against LRTM2 | inactive: 0.465
UGCUAUUCAUCUUUCCCGATT against TRIM11 | inactive: -0.251
GACAGGGAAUGAUCACAUUTT against PDE9A | inactive: 0.708
CAGCGCAUGUGGAACUACATT against GRIK5 | inactive: -0.242
AGAUUGUCAUCGUCCAGUUTT against ATP2B3 | inactive: 0.0848
GAAUCGAUAUAGAUGCAGATT against SLC5A4 | inactive: 0.602
GCACGACCCAAAUCCGAAUTT against PCDHGB2 | inactive: -0.429
AGGUCUUUACUUUCCUGAATT against GPX6 | inactive: 0.35
GAGAGAUUGUGAUUGGAGATT against BHMT | inactive: 0
CCACCCGGACGAUAUCUUUTT against PPARA | inactive: 0.113
GACCGUACGAGGCAAGUAATT against PAX1 | inactive: -0.111
GGUCAGACCAGUAACAAAATT against E2F6 | inactive: -0.299
CUACCUCAGUAAUCACAAUTT against EPHA1 | inactive: -0.092
GGCAAGACCUGCAACCAGATT against NTN3 | inactive: 0.298
GACUUUGAAGGAUCCUAUUTT against VPS13B | inactive: 0
CUUCGGUAGUUAUGUGACATT against DYNLL1 | inactive: 0
GGAGCAUCCAUCUGAGAAATT against TRPV5 | inactive: 0.0879
GGACUAGGCCCUACACACATT against PITX3 | inactive: 0
GGAUGAUUAUGCUAAUCUATT against GGPS1 | inactive: -0.372
GGGAAGGUGUUACAGGCUATT against FAM62A | inactive: -0.34
CCAUGAACUCGAUCACAGATT against TLE3 | inactive: -0.451
GGCUAUGGGAAGUACAAGATT against PDE1B | inactive: -0.384

Sequence | median seed-adjusted z-score
CGUCAUCUUUGCGAAGAUUTT against EHD2 | inactive: 0.0989
AUAUGUUCCAGGACCCUAATT against TUBB4Q | inactive: -0.0288
CCAUGAACUUUGGUGUUCATT against ELOVL3 | inactive: 0
CUUCAAGAAUAAGUACGAATT against KRT7 | inactive: 0
GACAGUCACUGAGCAUAGATT against PKD1L2 | active: -1.17
CCAGUUCCGAAUCAUCAGATT against PRICKLE3 | inactive: 0.0332
CGUCAUCAGACUCAAUGAATT against 12-Sep | inactive: 0.286
GGAGCUUCGAGAUAUCUUATT against POU4F1 | inactive: -0.138
CACGAACUGUUAGCACCUATT against TBC1D5 | inactive: 0.38
GCUUGUACCUCAUAUCAGATT against INCENP | inactive: -0.339
GCAGGAACAGAAUGCCGUATT against MBD4 | inactive: -0.107
ACAGGGCAGUGCUACUGUATT against LAMA5 | inactive: 0.229
GUUCAGACCUUUAUAGACATT against ZNF449 | inactive: 0.178
CCAACAAUAAGAACGAGAATT against POLR1A | inactive: 0.0814
GAAAGAUUCAUGAGAUAUUTT against PRDM5 | inactive: -0.463
GAUGUUGUUUUGUCGGCUATT against HEATR1 | inactive: -0.115
GGGAUAAUCAUGCACAGCATT against ADCYAP1 | inactive: 0.229
CACUAAUAUGUGAACUUAUTT against RAGE | inactive: -0.154
ACAACCUUCCUGUACUUCATT against GPR175 | inactive: 0.245
GGAGAAAGGUGAUCCCUGATT against MFSD5 | inactive: 0.205

Looked up one by one from the entries so far, 2 records:
Sequence | median seed-adjusted z-score
GAUGUUGUUUUGUCGGCUATT against HEATR1 | inactive: -0.115
GACAGUCACUGAGCAUAGATT against PKD1L2 | active: -1.17
